Reference: PubChem BioAssay AID1487 (National Center for Advancing Translational Sciences (NCATS), 2009)
“And” between values parts separate entries of the source, which are not always exact repeats. Identical values can stand only once. The list shows a part of the results. The main result of the screen is listed elsewhere. These columns were measured beside it and carry no call. Compounds called inactive in the main read-out are mostly missing here. Words in brackets tell the shape of the fitted curve; partial curves, single points and poor fits give uncertain potencies.

Assay: qHTS Assay for Modulators of Lamin A Splicing
Details: HeLa LMNA splicing GFP/RFP minigene ratio, 48 h
How it was run: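 S3 HeLa cells stably expressing lamin A-EGFP splicing minigene plus DsRed2, 600 cells/well, 48 h compound exposure at 37C. Laser-scanning cytometry; analysed as GFP (500-530 nm)/RFP (575-640 nm) total intensity ratio; 0.5% DMSO vehicle.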

[1] = measured here: GFP splicing reporter channel
[2] = measured here: RFP viability control channel

## O=C(Cn1c(-c2cccs2)cc2ccccc21)NCCCN1CCN(c2ccccc2F)CC1
[1]
  AC50: 0.708 µM [rising, full curve, poor fit]
[2]
  AC50: 12.6 µM [rising, partial curve]

## O=C(CSc1nccn1Cc1ccccc1)Nc1ccc2c(c1)OCCO2
[1]
  AC50: 22.4 µM [falling, partial curve]
[2]
  AC50: 50.1 µM [falling, partial curve, poor fit]

## COc1ccc(/C=N/NC(=O)c2nc(-c3ccccc3)n(-c3ccccc3)n2)c(O)c1
[2]
  AC50: 22.4 µM [rising, single point]

## CCN(CC)CCNC(C(=O)OCCC(C)C)c1ccccc1 (stereo unspecified)
[1]
  AC50: 0.0355 µM [falling, full curve]

## Cc1cc(N/C(=N/S(=O)(=O)c2cc(F)ccc2F)c2ccccc2)n(-c2ccccc2)n1
[2]
  AC50: 0.0355 µM [rising, full curve, poor fit]

## Cc1ccc(C(=O)NCCSCc2ccccc2)cc1[N+](=O)[O-]
[1]
  AC50: 15.8 µM [rising, single point]
[2]
  AC50: 15.8 µM [rising, single point]

## O=C(NC1CCCC1)C(c1ccncc1)N(Cc1ccccc1)C(=O)c1ccc(-c2ccccc2)[nH]1 (stereo unspecified)
[1]
  AC50: 22.4 µM [falling, single point]

## CN(C)C(=O)NC1C=CS(=O)(=O)C1 (stereo unspecified)
[1]
  AC50: 35.5 µM [falling, partial curve, poor fit]
[2]
  AC50: 35.5 µM [falling, partial curve, poor fit]

## O=C(Nc1ccc(Cc2ccncc2)cc1)c1ccc(S(=O)(=O)N2CCCC2)cc1
[2]
  AC50: 5.62 µM [rising, single point]

## CCOc1ccccc1N1CCN(C(=O)CCCN2C(=O)c3cccc4cccc(c34)C2=O)CC1
[2]
  AC50: 35.5 µM [rising, single point]

## COc1ccc(OC)c(C(=O)c2ccc(C(=O)Nc3cccc4ccccc34)cc2)c1
[2]
  AC50: 2.51 µM [rising, full curve, poor fit]

## O=C(Nc1cccc(F)c1)c1cc(S(=O)(=O)N2CCOCC2)cs1
[2]
  AC50: 35.5 µM [falling, single point]

## COc1ccccc1-c1nnc2sc(-c3cc4ccccc4o3)nn12
[1]
  AC50: 0.631 µM [falling, full curve]
[2]
  AC50: 0.708 µM [falling, full curve]

## N#CCc1ccc(NS(=O)(=O)c2ccc(C3CCCCC3)cc2)cc1
[1]
  AC50: 10 µM [rising, partial curve]
[2]
  AC50: 5.62 µM [rising, full curve]

## OCCNc1c2ccccc2nc2c(F)c(F)c(F)c(F)c12
[2]
  AC50: 3.55 µM [rising, full curve, poor fit]

## O=C(/C=C/c1ccc([N+](=O)[O-])cc1)NCCN1C(=O)S/C(=C\c2ccc(F)cc2)C1=O
[1]
  AC50: 0.00447 µM [falling, full curve, poor fit]
[2]
  AC50: 0.00355 µM [falling, full curve, poor fit]

## Cc1ccc(-c2csc(NC(=O)Cn3[nH]c(=O)c4ccccc4c3=O)n2)cc1
[2]
  AC50: 7.08 µM [rising, partial curve, poor fit]

## O=C(O)c1cc(-c2ccc(Cl)s2)nc2ccccc12
[2]
  AC50: 35.5 µM [rising, single point]

## O=C(NCc1ccco1)C1CCN(C(=O)c2cc3sccc3n2Cc2ccc(F)cc2)CC1
[2]
  AC50: 25.1 µM [rising, single point]

## COc1cccc(Cn2c(=O)c(C)nc3cnc(Nc4ccccc4)nc32)c1
[2]
  AC50: 10 µM [falling, partial curve]

## CCN(C(=O)C1CCCN(c2ncnc3c2nc2n3CCCCC2)C1)c1cccc(Cl)c1 (stereo unspecified)
[1]
  AC50: 0.1 µM [falling, full curve, poor fit]

## Cc1nn(-c2ccccc2)c(C)c1/C=N/NC(=O)c1cccs1
[2]
  AC50: 12.6 µM [rising, partial curve, poor fit]

## COc1c2ccoc2nc2c(OC)c(OC[C@H](O)C(C)(C)O)ccc12
[1]
  AC50: 12.6 µM [falling, single point]

## FC(F)(F)c1ccccc1-c1ccc2ncnc(N3CCOCC3)c2c1
[1]
  AC50: 11.2 µM [falling, partial curve]
[2]
  AC50: 20 µM [falling, partial curve, poor fit]

## CN(Cc1ccccc1)c1ncnc2c1cnn2-c1ccccc1
[2]
  AC50: 22.4 µM [rising, single point]

## COc1ccc(-c2cc(=O)n3[nH]cnc3n2)cc1
[1]
  AC50: 0.562 µM [rising, full curve, poor fit]

## COc1ccc(C(=O)Nc2ccccc2C(=O)OCc2cc(=O)n3c4c(sc3n2)CCCC4)cc1
[2]
  AC50: 0.891 µM [falling, partial curve, poor fit]

## CC(=O)Nc1ccc(S(=O)(=O)N2CCCN(S(=O)(=O)c3ccc(C)cc3)CC2)cc1
[1]
  AC50: 35.5 µM [rising, single point]
[2]
  AC50: 15.8 µM [rising, single point]

## CC(=O)N(Cc1ccc(F)cc1)C1=C(NCc2ccccc2)C(=O)c2ccccc2C1=O
[1]
  AC50: 7.08 µM [falling, full curve]
[2]
  AC50: 5.62 µM [falling, full curve]

## CCOC(=O)C1(CC2CCCCO2)CCN(Cc2ccccc2-c2ccco2)CC1 (stereo unspecified)
[1]
  AC50: 35.5 µM [falling, single point]

## Cc1ccc(-c2nnc(N3CCCCC3)c3ccccc23)cc1S(=O)(=O)NCC1CCCO1 (stereo unspecified)
[2]
  AC50: 35.5 µM [rising, single point]

## C[C@]12CC[C@@H]3c4ccc(OC(=O)c5ccccc5)cc4CC[C@H]3[C@@H]1CC[C@@H]2O
[1]
  AC50: 2.51 µM [rising, full curve, poor fit] and 3.98 µM [falling, partial curve]
[2]
  AC50: 3.16 µM [rising, full curve] and 3.98 µM [falling, full curve, poor fit]

## COc1ccc(CCNC(=O)CSc2nc3cc(Cl)ccc3o2)cc1OC
[2]
  AC50: 15.8 µM [rising, single point]

## CN(CCO)c1cc(Sc2nc3ccccc3s2)c2nonc2c1[N+](=O)[O-]
[1]
  AC50: 25.1 µM [falling, partial curve]
[2]
  AC50: 25.1 µM [falling, single point]

## c1ccc(Cc2nnc(Sc3ccccc3)c3ccccc23)cc1
[1]
  AC50: 25.1 µM [falling, single point]
[2]
  AC50: 35.5 µM [falling, single point]

## COc1cc(-c2nc(-c3ccc(NC(=O)c4ccc(Br)o4)cc3)no2)cc(OC)c1OC
[2]
  AC50: 5.01 µM [rising, partial curve]

## Cc1ccc([N+](=O)[O-])cc1NC(=O)CCc1ccccc1
[2]
  AC50: 0.1 µM [falling, full curve, poor fit]

## Cc1ccc(-c2ccc(C(=O)Nc3cccc(F)c3)o2)c2ccccc12
[1]
  AC50: 15.8 µM [rising, single point]
[2]
  AC50: 11.2 µM [rising, partial curve]

## COC1(OC)C(/C=C/c2ccc(Cl)cc2)C(C#N)(C#N)C1(OC)OC (stereo unspecified)
[1]
  AC50: 10 µM [falling, partial curve, poor fit]
[2]
  AC50: 2.51 µM [rising, partial curve]

## S=C1c2ccccc2CN1c1ccccc1
[1]
  AC50: 2.82 µM [rising, partial curve, poor fit]
[2]
  AC50: 1.26 µM [rising, partial curve, poor fit]

## CCCCOc1ccc(N2C(=O)CC(N(O)c3ccccc3)C2=O)cc1 (stereo unspecified)
[2]
  AC50: 17.8 µM [rising, single point]

## CC(C)=CCN1CCN(Cc2nc(-c3ccccc3)cs2)CC1CCO (stereo unspecified)
[1]
  AC50: 0.0708 µM [rising, full curve, poor fit]

## O=C(/C=C/c1ccco1)NC(=S)Nc1ccccc1O
[2]
  AC50: 6.31 µM [rising, partial curve]

## S=C(NCc1ccc2[nH]c3c(c2c1)CCCC3)Nc1ccccc1
[2]
  AC50: 35.5 µM [rising, single point]

## COc1cc2nc(CN3C(=O)c4ccccc4C3=O)oc(=O)c2cc1OC
[2]
  AC50: 0.00447 µM [falling, full curve, poor fit]

## O=C(NNC1=C(C(=O)C(F)(F)F)CCC1)c1ccccc1Cl
[2]
  AC50: 31.6 µM [rising, single point]

## COc1ccc(CN(C2CCCCC2C)S(=O)(=O)c2ccc(S(=O)(=O)N(C)C)cc2)cc1OC (stereo unspecified)
[1]
  AC50: 31.6 µM [rising, single point]

## O=C(NN=C(Cc1ccccc1)Cc1ccccc1)C1CC1
[2]
  AC50: 0.282 µM [falling, full curve, poor fit]

## CCN1CCC(N(Cc2cccc(OC)c2)C(=O)Nc2cccc(C(F)(F)F)c2)CC1
[1]
  AC50: 31.6 µM [falling, single point]

## CCN(CC)c1ccc(C(=O)NCc2ccc3c(c2)CCN3C(=O)c2ccccc2)cc1
[1]
  AC50: 20 µM [falling, partial curve, poor fit]

## Cc1ccc(-c2[nH]ncc2/C=N/n2c(COc3ccccc3)nc3ccccc3c2=O)cc1
[1]
  AC50: 17.8 µM [falling, partial curve]
[2]
  AC50: 35.5 µM [falling, single point]

## O=C(Nc1nnc(C23CC4CC(CC(C4)C2)C3)s1)c1ccc(N2C(=O)CCC2=O)cc1
[2]
  AC50: 2 µM [rising, partial curve]

## O=C(O)c1cccc(N2C(=S)N=C(Nc3ccccc3)C23CCCCC3)c1
[2]
  AC50: 0.0355 µM [falling, full curve, poor fit]

## Cc1ccc(N2CCN(c3ccc(C)cc3)C2c2cccnc2)cc1
[1]
  AC50: 28.2 µM [rising, single point]
